The values that follow come from PubChem BioAssay AID330 (DTP/NCI, 2004).

The list shows only some results of the screen, not a fair sample: it is rich in T/C values a quarter to a half above the control, in often repeated tests (any T/C) and in doses without a T/C. Further doses and runs are listed elsewhere. T/C is the treated group as % of the vehicle group. Some doses have a count of surviving animals in place of a T/C: the source files T/C as zero there, which appears to mark a toxic dose or a test without result, not a measured value. Some survivor counts are full or nearly so, which does not show that the dose was tolerated: survival well below the control is almost never listed, so the zero probably covers shortened survival too. Survivors were counted at the toxicity check, usually on the fifth day, unless a day is given; later deaths do not show. Schedule codes are those of the source, taken here to give the interval after Q, in days (D) or hours (H), and the number of doses after X. Some entries were tested several times; the results are listed from low to high. Where survival is the endpoint, the PubChem record calls one and a half times the control and up active, and a quarter to a half above the control has no call in these data; cut-offs in other NCI protocols can differ. Some T/C values are followed by the survivors on the day toxicity was checked, most often the fifth; without a count, all were alive then.

In the experiment the test system is P388 leukemia ip, CD2F1 mice, survival T/C. Briefly: NCI In Vivo Anticancer Drug Screen. Data for tumor model P388 Leukemia (intraperitoneal) in CD2F1 (CDF1) mice. To be noted: T/C endpoint: median survival time, higher T/C = longer survival.
Setting [1] is: dose: 400.0 mg/kg/injection, schedule: Q04DX003 (ip), vehicle: saline with Tween-80.
[2] abbreviates: dose: 100.0 mg/kg/injection, schedule: Q01DX009 (ip), vehicle: saline with Tween-80.
Where [3] appears, read: dose: 200.0 mg/kg/injection, schedule: Q01DX009 (ip), vehicle: saline.
The mark [4] stands for this setting: dose: 120.0 mg/kg/injection, schedule: Q01DX005 (ip), vehicle: Klucel (hydroxypropylcellulose) (HPC).
[5] abbreviates: dose: 240.0 mg/kg/injection, schedule: Q01DX005 (ip), vehicle: Klucel (hydroxypropylcellulose) (HPC).
Where [6] appears, read: dose: 200.0 mg/kg/injection, schedule: Q01DX009 (ip), vehicle: saline with Tween-80.
The mark [7] stands for this setting: dose: 25.0 mg/kg/injection, schedule: Q01DX005 (ip), vehicle: Klucel (hydroxypropylcellulose) (HPC).

In the case of `Cc1cc(N/N=C/c2ccc(N(CCCl)CCCl)cc2)c2cc3c(cc2n1)OCO3`, the survivor count is 4 of 5 and 6 of 6 (dose: 100.0 mg/kg/injection, schedule: Q04DX003 (ip), vehicle: saline with Tween-80); 3 of 6 (dose: 200.0 mg/kg/injection, schedule: Q04DX003 (ip), vehicle: saline with Tween-80); 0 of 5 under setting [1].

On to `CCC(C)Sc1nc(N)nc2c1ncn2C1OC(CO)C(O)C1O` (stereo unspecified), for which the T/C is, setting by setting: under setting [2], 130 % of control; under setting [1], 128 % of control. Also, the survivor count (dose: 400.0 mg/kg/injection, schedule: Q01DX009 (ip), vehicle: saline with Tween-80) was 2 of 6.

As for `Cc1ccc2c(c1)C(=O)N(CC[P+](c1ccccc1)(c1ccccc1)c1ccccc1)C2=O`, the T/C was 129 % of control (dose: 3.13 mg/kg/injection, schedule: Q01DX009 (ip), vehicle: water); 139 % of control (dose: 6.25 mg/kg/injection, schedule: Q01DX009 (ip), vehicle: water, evaluated on day 30); 135 % of control (dose: 6.25 mg/kg/injection, schedule: Q01DX009 (ip), vehicle: water, evaluated on day 45). Further, the survivor count (dose: 12.5 mg/kg/injection, schedule: Q01DX009 (ip), vehicle: water) was 3 of 6; the survivor count (dose: 25.0 mg/kg/injection, schedule: Q01DX009 (ip), vehicle: water) is 0 of 6 and 4 of 6.

With `CC[As](=O)(O)CC(C)C`, the survivor count (dose: 100.0 mg/kg/injection, schedule: Q04DX002 (ip), vehicle: saline) is 0 of 6 and 4 of 6; the survivor count (dose: 200.0 mg/kg/injection, schedule: Q04DX002 (ip), vehicle: saline) is listed as 0 of 6; the survivor count (dose: 400.0 mg/kg/injection, schedule: Q04DX002 (ip), vehicle: saline) is recorded as 1 of 6.

For the compound `CCCCCCCCCC[N+]1([O-])CCOCC1`, under setting [3], the survivor count is 2 of 6.

Regarding `CCOc1c(N=Nc2ccc(Cl)cc2Cl)c(C)nn1C(N)=S`, the survivor count runs as follows: (dose: 60.0 mg/kg/injection, schedule: Q01DX005 (ip), vehicle: Klucel (hydroxypropylcellulose) (HPC)) 0 of 6 and 2 of 6; under setting [4], 0 of 6; under setting [5], 0 of 6.

On to `C1CCC(C2CCCC[N-]2)[N-]C1.C1CCC(C2CCCC[N-]2)[N-]C1.[Cl][Co][Cl]` (stereo unspecified), for which the survivor count under setting [3] is listed as 0 of 6.

As to `OC(c1cc(-c2ccccc2)nc2c(Cl)cc(Cl)cc12)C1CCCCN1` (stereo unspecified), the survivor count by setting is: under setting [2], 6 of 6; under setting [6], 5 of 6.

As to `Nc1c(-c2ncc[nH]2)[nH]c2cc(-c3ncc[nH]3)ccc12`, the survivor count is on record as 0 of 6 under setting [4] and 0 of 6 under setting [5].

As to `CC[C@](C)(O)C(=O)O[C@H]1C(=O)O[C@@H]2C[C@H]3C(C)=CC(=O)[C@@H](O)[C@]3(C)[C@H]3[C@@]4(O)OC[C@]32[C@@H]1[C@@H](C)[C@H]4O`, the T/C (dose: 0.43 mg/kg/injection, schedule: Q01DX009 (ip), vehicle: saline with Tween-80) was 128 % of control; the T/C (dose: 0.48 mg/kg/injection, schedule: Q01DX009 (ip), vehicle: saline with Tween-80) is 128 % of control; the T/C (dose: 0.53 mg/kg/injection, schedule: Q01DX009 (ip), vehicle: saline with Tween-80) is 137 % of control; the T/C (dose: 0.59 mg/kg/injection, schedule: Q01DX009 (ip), vehicle: saline with Tween-80) is 135 % of control; the T/C (dose: 0.66 mg/kg/injection, schedule: Q01DX009 (ip), vehicle: saline with Tween-80) is 131 % of control; the T/C (dose: 0.73 mg/kg/injection, schedule: Q01DX009 (ip), vehicle: saline with Tween-80) was 135 % of control. Besides, the T/C reads like this: (dose: 0.81 mg/kg/injection, schedule: Q01DX009 (ip), vehicle: saline with Tween-80) 144 % of control; (dose: 0.9 mg/kg/injection, schedule: Q01DX009 (ip), vehicle: saline with Tween-80) 146 % of control [5 of 6 alive]; (dose: 1.0 mg/kg/injection, schedule: Q01DX009 (ip), vehicle: saline with Tween-80) 140 % of control.

Consider `O=C([O][Hg][C](F)(F)F)C(F)(F)F`, for which the survivor count (dose: 6.25 mg/kg/injection, schedule: Q04DX003 (ip), vehicle: saline) is 3 of 6.

With `COc1cc(NCCCCCCNC(C)C)c2ncccc2c1`, the survivor count runs as follows: (dose: 50.0 mg/kg/injection, schedule: Q01DX005 (ip), vehicle: saline with Tween-80) 0 of 5; (dose: 100.0 mg/kg/injection, schedule: Q01DX005 (ip), vehicle: saline with Tween-80) 0 of 5; (dose: 200.0 mg/kg/injection, schedule: Q01DX005 (ip), vehicle: saline with Tween-80) 0 of 5.

Regarding `CCN1C(=O)C(=O)c2ccccc21`, for the setting “dose: 18.2 mg/kg/injection, schedule: Q01DX009 (ip), vehicle: saline”, the survivor count was 5 of 5.

As to `NCC(c1ccccc1)C1CCCCC1` (stereo unspecified), the survivor count (dose: 100.0 mg/kg/injection, schedule: Q01DX005 (ip), vehicle: saline) is listed as 3 of 6 and the survivor count (dose: 200.0 mg/kg/injection, schedule: Q01DX005 (ip), vehicle: saline) is 0 of 6.

As for `C=C(C)[Se]c1ccccc1`, under setting [6], the survivor count is 1 of 6 and 2 of 6.

For the compound `OCC[CH2][Pb]([c]1ccccc1)([c]1ccccc1)[c]1ccccc1`, the T/C (dose: 6.25 mg/kg/injection, schedule: Q01DX009 (ip), vehicle: Klucel (hydroxypropylcellulose) (HPC)) is 127 % of control. Besides, the survivor count (dose: 12.5 mg/kg/injection, schedule: Q01DX009 (ip), vehicle: Klucel (hydroxypropylcellulose) (HPC)) is on record as 2 of 6.

In the case of `CN=C1C=CC(=C(c2ccc(N(C)C)cc2)c2ccc(N(C)C)cc2)C=C1`, the T/C is, setting by setting: (dose: 6.25 mg/kg/injection, schedule: Q01DX005 (ip), vehicle: Klucel (hydroxypropylcellulose) (HPC)) 126 % of control; (dose: 12.5 mg/kg/injection, schedule: Q01DX005 (ip), vehicle: Klucel (hydroxypropylcellulose) (HPC)) 128 and 130 % of control; under setting [7], 130 % of control. In addition, the survivor count is listed as 4 of 6 under setting [7]; 1 of 6 (dose: 50.0 mg/kg/injection, schedule: Q01DX005 (ip), vehicle: Klucel (hydroxypropylcellulose) (HPC)); 0 of 5 (dose: 100.0 mg/kg/injection, schedule: Q01DX005 (ip), vehicle: Klucel (hydroxypropylcellulose) (HPC)); 0 of 6 (dose: 200.0 mg/kg/injection, schedule: Q01DX005 (ip), vehicle: Klucel (hydroxypropylcellulose) (HPC)).

`Nn1cnnc1N/N=C\c1ccc(N(CCCl)CCCl)cc1`: the T/C (dose: 25.0 mg/kg/injection, schedule: Q01DX009 (ip), vehicle: saline) was 140 and 146 % of control.

Turning to `O=C(Nc1ccccc1)c1nn(-c2cc(S(=O)(=O)[O-])ccc2Cl)[n+](-c2ccccc2Cl)n1`, the survivor count under setting [5] was 3 of 6.
